Measurements as given in patent US11903929B2, “Method for inhibiting dengue virus infection” (FLORIDA STATE UNIVERSITY RESEARCH FOUNDATION, INC., priority 2018, dated 2024).

Test system: Zika virus
Assay: Zika viral production assay (infectious viral titer assay on Vero cells)
Type: cell-based
Settings: read-out: Anti-ZIKV activity IC50

Structure (SMILES): COc1cc2c(c(OC)c1OC)-c1ccc(OC)c(=O)cc1[C@@H](NC(C)=O)CC2 [NCGC00025125-18, N-[(7S)-1,2,3,10-tetramethoxy-9-oxo-6,7-dihydro-5H-benzo[a]heptalen-7-yl]acetamide]
- IC50: 0.709 nM
